Source: the supplement of paper PMC10849652
The other results are listed elsewhere or left out. Residues, ends and D or L forms follow the SMILES beside them. *: point of attachment. Cbz = O=C(OCc1ccccc1)*

By UniProt entry, the sequences of proteins in these tests, tags left out. Where a name states a change or a piece, a line headed by the entry shows the natural chain unless it says otherwise.
UniProt Q15005: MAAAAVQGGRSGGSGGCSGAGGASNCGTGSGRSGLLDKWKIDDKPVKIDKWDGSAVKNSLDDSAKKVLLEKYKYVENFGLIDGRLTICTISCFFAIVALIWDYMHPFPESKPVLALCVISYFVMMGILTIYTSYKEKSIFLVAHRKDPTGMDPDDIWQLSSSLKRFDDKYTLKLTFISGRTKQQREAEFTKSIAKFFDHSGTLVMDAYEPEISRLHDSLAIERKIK
UniProt P43307: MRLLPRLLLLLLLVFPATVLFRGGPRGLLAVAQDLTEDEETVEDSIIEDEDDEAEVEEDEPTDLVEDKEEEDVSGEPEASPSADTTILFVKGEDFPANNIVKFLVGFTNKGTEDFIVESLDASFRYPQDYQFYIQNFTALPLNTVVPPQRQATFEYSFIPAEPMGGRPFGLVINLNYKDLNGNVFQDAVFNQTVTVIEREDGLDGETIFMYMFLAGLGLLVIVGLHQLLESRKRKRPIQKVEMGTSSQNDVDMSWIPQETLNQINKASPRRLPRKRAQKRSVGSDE
UniProt P37108: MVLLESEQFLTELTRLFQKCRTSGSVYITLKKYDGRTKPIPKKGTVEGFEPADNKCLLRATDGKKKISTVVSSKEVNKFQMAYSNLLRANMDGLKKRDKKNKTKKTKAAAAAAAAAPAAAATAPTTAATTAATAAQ
UniProt O76094: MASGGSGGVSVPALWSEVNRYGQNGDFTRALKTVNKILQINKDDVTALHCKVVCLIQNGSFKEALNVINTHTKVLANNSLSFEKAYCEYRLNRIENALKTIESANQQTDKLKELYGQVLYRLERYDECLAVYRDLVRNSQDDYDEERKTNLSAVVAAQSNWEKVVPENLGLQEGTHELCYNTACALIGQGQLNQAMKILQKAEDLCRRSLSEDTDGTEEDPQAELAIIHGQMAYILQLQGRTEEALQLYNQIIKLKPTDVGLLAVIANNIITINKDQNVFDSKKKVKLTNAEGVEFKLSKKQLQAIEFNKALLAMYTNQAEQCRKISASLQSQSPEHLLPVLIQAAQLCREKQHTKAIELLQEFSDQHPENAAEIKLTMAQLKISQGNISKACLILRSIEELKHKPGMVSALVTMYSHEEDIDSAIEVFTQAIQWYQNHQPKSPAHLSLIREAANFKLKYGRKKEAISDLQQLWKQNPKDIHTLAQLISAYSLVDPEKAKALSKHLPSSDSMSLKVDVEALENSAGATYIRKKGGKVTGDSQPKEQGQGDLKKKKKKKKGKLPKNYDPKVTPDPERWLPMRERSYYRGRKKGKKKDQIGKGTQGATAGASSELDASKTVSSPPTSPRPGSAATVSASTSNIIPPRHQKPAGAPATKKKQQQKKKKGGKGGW
UniProt Q9NQZ5: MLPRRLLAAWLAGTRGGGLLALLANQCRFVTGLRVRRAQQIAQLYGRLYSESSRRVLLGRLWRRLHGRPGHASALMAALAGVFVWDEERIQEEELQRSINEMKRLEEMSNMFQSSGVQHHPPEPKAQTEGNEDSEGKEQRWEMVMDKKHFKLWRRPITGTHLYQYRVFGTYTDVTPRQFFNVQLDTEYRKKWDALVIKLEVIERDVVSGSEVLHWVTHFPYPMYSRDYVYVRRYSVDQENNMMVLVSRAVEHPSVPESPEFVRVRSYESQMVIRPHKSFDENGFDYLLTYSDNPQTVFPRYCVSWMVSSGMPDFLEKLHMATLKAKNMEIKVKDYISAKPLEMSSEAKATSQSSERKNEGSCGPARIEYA
UniProt Q14534: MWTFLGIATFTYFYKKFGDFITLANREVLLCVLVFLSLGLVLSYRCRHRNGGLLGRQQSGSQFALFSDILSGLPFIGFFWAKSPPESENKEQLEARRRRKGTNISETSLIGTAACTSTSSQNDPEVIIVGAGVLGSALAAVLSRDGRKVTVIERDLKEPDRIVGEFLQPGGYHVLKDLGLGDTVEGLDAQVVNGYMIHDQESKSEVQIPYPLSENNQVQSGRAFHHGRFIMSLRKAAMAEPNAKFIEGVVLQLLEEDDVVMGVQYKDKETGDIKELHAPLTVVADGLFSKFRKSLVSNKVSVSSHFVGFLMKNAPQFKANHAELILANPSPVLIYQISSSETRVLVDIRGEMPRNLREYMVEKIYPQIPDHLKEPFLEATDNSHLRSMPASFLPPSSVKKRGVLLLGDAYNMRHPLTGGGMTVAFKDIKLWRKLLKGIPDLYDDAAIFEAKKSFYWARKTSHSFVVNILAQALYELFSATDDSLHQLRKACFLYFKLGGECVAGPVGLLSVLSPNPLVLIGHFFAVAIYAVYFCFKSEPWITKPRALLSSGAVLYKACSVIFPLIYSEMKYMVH
UniProt Q96SB4, whole entry, looked up: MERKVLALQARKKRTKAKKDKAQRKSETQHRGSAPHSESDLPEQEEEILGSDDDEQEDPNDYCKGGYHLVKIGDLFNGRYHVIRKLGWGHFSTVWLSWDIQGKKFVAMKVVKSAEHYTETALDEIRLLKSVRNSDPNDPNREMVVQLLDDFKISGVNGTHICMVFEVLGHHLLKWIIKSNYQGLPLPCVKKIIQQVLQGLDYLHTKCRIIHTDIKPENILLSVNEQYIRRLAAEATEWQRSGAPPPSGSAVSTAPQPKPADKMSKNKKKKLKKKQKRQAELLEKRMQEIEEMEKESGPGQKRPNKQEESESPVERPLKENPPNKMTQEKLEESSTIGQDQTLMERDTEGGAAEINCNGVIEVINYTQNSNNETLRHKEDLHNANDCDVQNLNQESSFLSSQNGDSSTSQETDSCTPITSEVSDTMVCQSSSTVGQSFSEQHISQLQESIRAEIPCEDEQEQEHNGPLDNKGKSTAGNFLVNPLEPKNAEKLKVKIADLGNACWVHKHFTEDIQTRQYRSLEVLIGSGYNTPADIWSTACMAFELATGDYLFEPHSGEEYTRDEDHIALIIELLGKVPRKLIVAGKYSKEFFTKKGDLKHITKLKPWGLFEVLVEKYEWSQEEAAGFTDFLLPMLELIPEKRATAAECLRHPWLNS
UniProt Q08945, whole entry, looked up: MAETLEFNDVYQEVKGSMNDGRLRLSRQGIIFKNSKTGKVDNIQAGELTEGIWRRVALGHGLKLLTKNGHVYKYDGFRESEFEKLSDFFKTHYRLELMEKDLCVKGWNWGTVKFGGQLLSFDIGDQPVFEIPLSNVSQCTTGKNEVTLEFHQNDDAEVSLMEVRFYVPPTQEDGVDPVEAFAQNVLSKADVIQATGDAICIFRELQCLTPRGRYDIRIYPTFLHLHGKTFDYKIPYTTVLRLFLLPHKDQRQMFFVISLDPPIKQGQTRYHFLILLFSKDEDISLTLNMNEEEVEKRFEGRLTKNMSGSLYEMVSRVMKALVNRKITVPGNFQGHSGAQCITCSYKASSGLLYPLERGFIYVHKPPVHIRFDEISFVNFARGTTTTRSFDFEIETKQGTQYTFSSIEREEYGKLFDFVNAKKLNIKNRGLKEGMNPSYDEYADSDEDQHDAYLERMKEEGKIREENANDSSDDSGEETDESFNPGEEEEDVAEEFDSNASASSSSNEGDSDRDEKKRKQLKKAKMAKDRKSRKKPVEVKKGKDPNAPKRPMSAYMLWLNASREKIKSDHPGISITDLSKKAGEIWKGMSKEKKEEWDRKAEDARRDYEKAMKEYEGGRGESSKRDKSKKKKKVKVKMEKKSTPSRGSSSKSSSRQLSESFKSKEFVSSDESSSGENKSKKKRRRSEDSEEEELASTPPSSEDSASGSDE

Tests used:
Assay in all cases: log2 fold change, soluble protein after heating vs DMSO (PISA); higher = thermal stabilisation; K562 cells, 10 uM, 30 min; active = over 0.2 and 3.5 SD of the protein, either way, in both replicates (recomputed)
[1] = compound: C#Cc1cccc(Nc2ncnc3cc(OCCOC)c(OCCOC)cc23)c1 [erlotinib]
In short: (§1)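 Soluble protein was defined as the supernatant after 21,000xg for 90 min. It came from K562 cells at 2×10^6 cells/mL given 10 μM compound for 30 min, heated in aliquots for 3 min across 48°C-58°C, pooled, and extracted in PBS with 0.5% NP-40 at 4°C, and was quantified by TMTpro 16plex LC-MS/MS with equalised channel sums. Thermal stability against control samples, from duplicates, is reported as log2 fold change.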

[2] = compound: C/C(=N\NC(=O)C1=CC(=CC=C1)S(=O)(=O)N2CCOCC2)/C3=C(C=CC(=C3)Cl)O
In short: as §1

[3] = compound: C1=CC(=C(C=C1Cl)C2=NC3=NC=CN=C3C(=N2)NC4=CC=NC=C4)F
In short: as §1

[4] = compound: C1=CC(=CC=C1C2=NC3=C(N2)C=C(C=C3)C(=O)N)OC4=CC=C(C=C4)Cl
In short: as §1

[5] = compound: C1=CC2=C(C=CC(=C2)/C=C\3/C(=O)NC(=NCC4=CC=CS4)S3)N=C1
In short: as §1

[6] = compound: C1=CC2=NC=CN=C2C=C1/C=C/3\C(=O)NC(=O)S3
In short: as §1

[7] = compound: C1=CC=C(C=C1)C2=NC(=C(N2)C3=CC=NC=C3)C4=CC(=C(C=C4)Cl)O
In short: as §1

[8] = compound: C1=CC=C2C(=C1)C3=NNC4=CC=CC(=C43)C2=O
In short: as §1

[9] = compound: C1CCN(C1)C(=O)NC2=CC=CC(=C2)NC3=NC=C(C(=N3)NCCC4=CN=CN4)Br
In short: as §1

[10] = compound: C1CN(CCC1(CC2=CC=C(C=C2)Cl)N)C3=NC=NC4=C3C=CN4
In short: as §1

[11] = compound: C1COCCN1CCN2C3=CC=CC=C3N=C2NC(=O)C4=CC(=CC=C4)[N+](=O)[O-] [IRAK-1-4 Inhibitor I]
In short: as §1

[12] = compound: C=CC(=O)N1CCC[C@@H](n2nc(-c3ccc(Oc4ccccc4)cc3)c3c(N)ncnc32)C1 [ibrutinib]
In short: as §1

[13] = compound: CC(=O)c1cnc2ccc(-c3cc(Cl)c(O)c(Cl)c3)nc2c1N[C@H]1CC[C@H](CN(C)C)CC1
In short: as §1

[14] = compound: CC(C)(C)Cn1c(N)nc2ccc(-c3[nH]c(C(C)(C)C)nc3-c3ccc(F)cc3)nc21 [ralimetinib]
In short: as §1

[15] = compound: CC(C)(O)CC(=O)NCCn1ccc2ncnc(Nc3ccc(Oc4cccc(C(F)(F)F)c4)c(Cl)c3)c21
In short: as §1

[16] = compound: CC(C)C1=C2N=C(C=C(N2N=C1)NCC3=CC=CC=C3)NCCCCCCN
In short: as §1

[17] = compound: CC(C)C[C@@H](C=O)NC(=O)[C@H](CC(C)C)NC(=O)[C@H](CC(C)C)NC(=O)OCc1ccccc1
In short: as §1

[18] = compound: CC(C)N(C[C@H]1O[C@@H](n2cnc3c(N)ncnc32)[C@H](O)[C@@H]1O)[C@H]1C[C@@H](CCc2nc3cc(C(C)(C)C)ccc3[nH]2)C1 [pinometostat]
In short: as §1

[19] = compound: CC1=C(C2=C(C=C1)C(=O)C3=CC=CC=C3N2CCCN)C
In short: as §1

[20] = compound: CC1=C(C(CC(=O)N1)C2=CC=C(C=C2)C(F)(F)F)C(=O)NC3=C(C=C4C(=C3)C=NN4)F
In short: as §1

Target | log2 fold change [1] | log2 fold change [2] | log2 fold change [3] | log2 fold change [4] | log2 fold change [5] | log2 fold change [6] | log2 fold change [7] | log2 fold change [8] | log2 fold change [9] | log2 fold change [10] | log2 fold change [11] | log2 fold change [12] | log2 fold change [13] | log2 fold change [14] | log2 fold change [15] | log2 fold change [16] | log2 fold change [17] | log2 fold change [18] | log2 fold change [19] | log2 fold change [20]
SPCS2 (UniProt Q15005) | inactive: -0.022 | inactive: 0.015 | inactive: 0.077 | inactive: -0.043 | inactive: 0.011 | inactive: 0.029 | inactive: -0.004 | inactive: -0.08 | inactive: -0.005 | inactive: 0.001 | inactive: -0.014 | inactive: -0.037 | inactive: -0.039 | inactive: -0.047 | inactive: -0.016 | inactive: -0.01 | inactive: -0.058 | inactive: -0.062 | inactive: 0.002 | 
SSR1 (UniProt P43307) | inactive: -0.028 | inactive: 0.022 | inactive: 0.018 | inactive: -0.001 | inactive: 0.023 | inactive: 0.02 | inactive: -0.029 | inactive: -0.01 | inactive: 0.016 | inactive: 0.013 | inactive: 0.08 | inactive: 0.028 | inactive: 0.006 | inactive: -0.077 | inactive: 0.02 | inactive: -0.033 | inactive: 0 | inactive: -0.016 | inactive: 0.008 | inactive: 0.034
SRP14 (UniProt P37108) | inactive: -0.077 | inactive: -0.291 | inactive: -0.471 | inactive: 0.002 | inactive: -0.103 | inactive: -0.008 | inactive: -0.042 | inactive: -0.036 | inactive: 0.078 | inactive: -0.071 | inactive: -0.128 | inactive: 0.048 | inactive: 0.039 | inactive: 0.188 | inactive: 0.057 | inactive: 0.016 | inactive: 0.156 | inactive: 0.348 | inactive: -0.341 | inactive: 0.064
SRP72 (UniProt O76094) | inactive: 0.044 | inactive: 0.105 | inactive: -0.072 | inactive: -0.054 | inactive: 0.066 | inactive: 0.001 | inactive: 0.005 | inactive: -0.052 | inactive: -0.005 | inactive: -0.194 | inactive: -0.119 | inactive: -0.03 | inactive: -0.025 | inactive: 0.104 | inactive: -0.121 | inactive: -0.275 | inactive: 0.062 | inactive: 0.205 | active: -0.547 | 
STARD7 (UniProt Q9NQZ5) | inactive: -0.021 | inactive: 0.084 | inactive: 0.024 | inactive: 0.086 | inactive: 0.031 | inactive: 0.009 | inactive: 0.017 | inactive: 0.067 | inactive: 0.006 | inactive: -0.029 | inactive: -0.012 | inactive: 0.055 | inactive: -0.026 | inactive: -0.01 | inactive: -0.051 | inactive: -0.057 | inactive: 0.028 | inactive: -0.009 | inactive: -0.003 | 
SQLE (UniProt Q14534) | inactive: -0.002 | inactive: 0.025 | inactive: -0.005 | inactive: 0.009 | inactive: 0.071 | inactive: 0.007 | inactive: 0.03 | inactive: -0.019 | inactive: 0.03 | inactive: 0.026 | inactive: 0.012 | inactive: 0.043 | inactive: -0.076 | inactive: 0.002 | inactive: -0.037 | inactive: 0.001 | inactive: 0.105 | inactive: 0.046 | inactive: -0.035 | inactive: -0.068
SRPK1 (UniProt Q96SB4) | inactive: -0.262 | inactive: -0.227 | inactive: -0.465 | inactive: 0.017 | inactive: -0.113 | inactive: 0.006 | inactive: -0.033 | inactive: -0.031 | inactive: 0.043 | inactive: -0.142 | inactive: -0.118 | inactive: -0.005 | inactive: 0.387 | inactive: 0.127 | inactive: 0.041 | inactive: 0.053 | inactive: 0.105 | inactive: 0.372 | inactive: -0.331 | inactive: 0.036
SSRP1 (UniProt Q08945) | inactive: -0.018 | inactive: 0.143 | inactive: 0.005 | inactive: 0.014 | inactive: 0.029 | inactive: 0.022 | inactive: -0.016 | inactive: -0.029 | inactive: -0.052 | inactive: 0.009 | inactive: -0.044 | inactive: -0.037 | inactive: -0.138 | inactive: -0.022 | inactive: -0.008 | inactive: -0.119 | inactive: 0 | inactive: -0.036 | active: -0.554 | 
